Data published in patent US20210102174A1 (TAIPEI VETERANS GENERAL HOSPITAL, published 2021).
No constants are given. Whether binding was seen depends on the method and setting. Binding seen in cells or lysates may run through a third protein. Some entries that bind do so weakly or less than the wild type. For some of these results: Sequences can lack the tags named with a protein.

Sequences of proteins named here, by UniProt entry; tags and fusion partners are left off.
UniProt Q8BX09: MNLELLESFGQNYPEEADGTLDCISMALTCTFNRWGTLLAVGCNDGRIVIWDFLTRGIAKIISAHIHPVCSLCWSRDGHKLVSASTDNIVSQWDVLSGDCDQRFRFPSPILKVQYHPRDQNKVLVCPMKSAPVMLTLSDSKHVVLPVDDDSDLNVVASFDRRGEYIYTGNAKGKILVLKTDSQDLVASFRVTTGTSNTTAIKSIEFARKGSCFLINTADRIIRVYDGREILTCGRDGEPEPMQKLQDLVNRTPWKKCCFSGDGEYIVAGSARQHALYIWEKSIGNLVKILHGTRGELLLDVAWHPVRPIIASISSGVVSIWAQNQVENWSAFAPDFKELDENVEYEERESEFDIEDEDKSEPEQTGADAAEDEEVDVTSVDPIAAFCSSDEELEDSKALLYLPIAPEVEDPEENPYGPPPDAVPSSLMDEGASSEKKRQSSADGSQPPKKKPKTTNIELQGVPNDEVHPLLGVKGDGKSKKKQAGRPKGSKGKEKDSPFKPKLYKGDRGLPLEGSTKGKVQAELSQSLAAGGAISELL
UniProt P20263: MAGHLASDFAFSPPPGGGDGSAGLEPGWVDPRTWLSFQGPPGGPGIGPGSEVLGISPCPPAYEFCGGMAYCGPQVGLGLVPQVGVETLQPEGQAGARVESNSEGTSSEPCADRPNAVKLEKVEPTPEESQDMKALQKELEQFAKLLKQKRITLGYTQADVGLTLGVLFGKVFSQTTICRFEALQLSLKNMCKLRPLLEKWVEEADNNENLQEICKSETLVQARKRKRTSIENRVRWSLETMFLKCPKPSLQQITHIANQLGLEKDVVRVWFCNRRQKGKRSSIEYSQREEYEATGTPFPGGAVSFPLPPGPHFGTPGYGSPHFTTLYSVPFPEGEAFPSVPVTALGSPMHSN
UniProt P48432: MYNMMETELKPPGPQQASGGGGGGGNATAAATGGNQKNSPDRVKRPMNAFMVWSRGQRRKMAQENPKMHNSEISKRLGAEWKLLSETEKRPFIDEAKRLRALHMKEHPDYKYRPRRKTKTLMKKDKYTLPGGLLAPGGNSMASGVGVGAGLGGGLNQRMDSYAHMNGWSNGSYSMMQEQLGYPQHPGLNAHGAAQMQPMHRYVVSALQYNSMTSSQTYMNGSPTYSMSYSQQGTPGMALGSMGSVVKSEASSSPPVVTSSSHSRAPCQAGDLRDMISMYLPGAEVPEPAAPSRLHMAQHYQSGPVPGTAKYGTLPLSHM

T1: Recombinant GST-fusion protein of Nanog (UniProt Q80Z64)
T1 sequence (looked up): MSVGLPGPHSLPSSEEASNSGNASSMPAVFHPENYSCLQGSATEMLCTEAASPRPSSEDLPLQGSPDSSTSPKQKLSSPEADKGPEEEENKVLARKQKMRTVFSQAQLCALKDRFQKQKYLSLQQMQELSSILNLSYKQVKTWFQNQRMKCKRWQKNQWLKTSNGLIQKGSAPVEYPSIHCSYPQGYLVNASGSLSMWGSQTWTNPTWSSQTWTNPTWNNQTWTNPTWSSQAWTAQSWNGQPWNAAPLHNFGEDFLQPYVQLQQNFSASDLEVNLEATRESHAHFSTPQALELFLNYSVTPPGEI


Legend:
[1] = molecular target: Rbbp5 (endogenous) (mouse) (UniProt Q8BX09); assay: co-IP from gel filtration fraction 4 of ESC nuclear extract
[2] = molecular target: Rbbp5 (endogenous) (mouse) (UniProt Q8BX09); assay: co-IP with anti-Ash2l antibody from the 4th gel filtration fraction of ESC nuclear extract
[3] = molecular target: T1, Recombinant GST-fusion protein of Nanog; assay: GST pull-down with recombinant proteins, Western blot
[4] = molecular target: Recombinant GST-fusion protein of Oct4 (UniProt P20263); assay: as above
[5] = molecular target: Recombinant GST-fusion protein of Sox2 (UniProt P48432); assay: as above
[6] = molecular target: Rbbp5 (endogenous) (mouse) (UniProt Q8BX09); assay: co-IP of Flag-tagged Ash2l constructs from nuclear extracts, Western blot
[7] = molecular target: T1, Recombinant GST-fusion protein of Nanog; assay: in vitro pull-down with purified recombinant proteins, Western blot or Coomassie staining
[8] = molecular target: Recombinant GST-fusion protein of Oct4 (UniProt P20263); assay: as above
[9] = molecular target: Recombinant GST-fusion protein of Sox2 (UniProt P48432); assay: as above
[10] = molecular target: T1, Recombinant GST-fusion protein of Nanog; assay: in vitro Flag pull-down with GST-fusion proteins, Coomassie staining
[11] = molecular target: Recombinant GST-fusion protein of Rbbp5 (UniProt Q8BX09); assay: as above
[12] = molecular target: Recombinant GST-fusion protein of Sox2 (UniProt P48432); assay: as above

| binding [3] | binding [4] | binding [5] | binding [6] | binding [7] | binding [8] | binding [9] | Molecule | further results |
| --- | --- | --- | --- | --- | --- | --- | --- | --- |
|  |  |  |  |  |  |  | Ash2l (endogenous, in nuclear extracts of mouse embryonic stem cells) (from UniProt Q91X20 1-623) | binding [1]: binds; binding [2]: binds |
| binds | binds | binds | binds | binds | binds | binds | Flag-tagged full-length Ash2l (Ash2l-Full length: 1-623) (from UniProt Q91X20 1-623) |  |
|  |  |  |  |  |  |  | Flag-tagged Ash2l with W118A point mutation (from UniProt Q91X20 1-623) | binding [10]: binds; binding [11]: binds; binding [12]: binds |
|  |  |  | binds |  |  |  | Flag-tagged Ash2l-C terminus (387-623, the SPRY domain) (from UniProt Q91X20 387-623) |  |
| binds | binds | binds |  | binds | binds | binds | Flag-tagged Ash2l-N terminus (1-172, the PHD domain) (other, UniProt Q91X20 1-172, looked up, range 1-172; also called Flag-Ash2l-N; not shown: 3xFlag tag of the p3xFlag plasmid) MAAAGAGPGPGVSAGPGPGAAASATTAEDRETEPVAAGAGEGPSAAPGAEPSSGEAESGDANLVDVSGLETESSNGKDTLEGTGDTSEVMDTQAGSVDEENGRQLGEVELQCGICTKWFTADTFGIDTSSCLPFMTNYSFHCNVCHHSGNTYFLRKQANLKEMCLSALANLT |  |
